Assay results as given in publication doi:10.1101/2023.09.13.557663.

Target: wtEGFR-TurboID (transient, HEK293T) (UniProt P00533)
Assay: proximity labelling

| Binder | binding |
| --- | --- |
| DOK1 (protein, UniProt Q99704 1-481) MDGAVMEGPLFLQSQRFGTKRWRKTWAVLYPASPHGVARLEFFDHKGSSSGGGRGSSRRLDCKVIRLAECVSVAPVTVETPPEPGATAFRLDTAQRSHLLAADAPSSAAWVQTLCRNAFPKGSWTLAPTDNPPKLSALEMLENSLYSPTWEGSQFWVTVQRTEAAERCGLHGSYVLRVEAERLTLLTVGAQSQILEPLLSWPYTLLRRYGRDKVMFSFEAGRRCPSGPGTFTFQTAQGNDIFQAVETAIHRQKAQGKAGQGHDVLRADSHEGEVAEGKLPSPPGPQELLDSPPALYAEPLDSLRIAPCPSQDSLYSDPLDSTSAQAGEGVQRKKPLYWDLYEHAQQQLLKAKLTDPKEDPIYDEPEGLAPVPPQGLYDLPREPKDAWWCQARVKEEGYELPYNPATDDYAVPPPRSTKPLLAPKPQGPAFPEPGTATGSGIKSHNSALYSQVQKSGASGSWDCGLSRVGTDKTGVKSEGST | binds |
| USP8 (protein, UniProt P40818 1-1118) MPAVASVPKELYLSSSLKDLNKKTEVKPEKISTKSYVHSALKIFKTAEECRLDRDEERAYVLYMKYVTVYNLIKKRPDFKQQQDYFHSILGPGNIKKAVEEAERLSESLKLRYEEAEVRKKLEEKDRQEEAQRLQQKRQETGREDGGTLAKGSLENVLDSKDKTQKSNGEKNEKCETKEKGAITAKELYTMMTDKNISLIIMDARRMQDYQDSCILHSLSVPEEAISPGVTASWIEAHLPDDSKDTWKKRGNVEYVVLLDWFSSAKDLQIGTTLRSLKDALFKWESKTVLRNEPLVLEGGYENWLLCYPQYTTNAKVTPPPRRQNEEVSISLDFTYPSLEESIPSKPAAQTPPASIEVDENIELISGQNERMGPLNISTPVEPVAASKSDVSPIIQPVPSIKNVPQIDRTKKPAVKLPEEHRIKSESTNHEQQSPQSGKVIPDRSTKPVVFSPTLMLTDEEKARIHAETALLMEKNKQEKELRERQQEEQKEKLRKEEQEQKAKKKQEAEENEITEKQQKAKEEMEKKESEQAKKEDKETSAKRGKEITGVKRQSKSEHETSDAKKSVEDRGKRCPTPEIQKKSTGDVPHTSVTGDSGSGKPFKIKGQPESGILRTGTFREDTDDTERNKAQREPLTRARSEEMGRIVPGLPSGWAKFLDPITGTFRYYHSPTNTVHMYPPEMAPSSAPPSTPPTHKAKPQIPAERDREPSKLKRSYSSPDITQAIQEEEKRKPTVTPTVNRENKPTCYPKAEISRLSASQIRNLNPVFGGSGPALTGLRNLGNTCYMNSILQCLCNAPHLADYFNRNCYQDDINRSNLLGHKGEVAEEFGIIMKALWTGQYRYISPKDFKITIGKINDQFAGYSQQDSQELLLFLMDGLHEDLNKADNRKRYKEENNDHLDDFKAAEHAWQKHKQLNESIIVALFQGQFKSTVQCLTCHKKSRTFEAFMYLSLPLASTSKCTLQDCLRLFSKEEKLTDNNRFYCSHCRARRDSLKKIEIWKLPPVLLVHLKRFSYDGRWKQKLQTSVDFPLENLDLSQYVIGPKNNLKKYNLFSVSNHYGGLDGGHYTAYCKNAARQRWFKFDDHEVSDISVSSVKSSAAYILFYTSLGPRVTDVAT | binds |
| UBAP1 (protein, UniProt Q9NZ09 1-502) MASKKLGADFHGTFSYLDDVPFKTGDKFKTPAKVGLPIGFSLPDCLQVVREVQYDFSLEKKTIEWAEEIKKIEEAEREAECKIAEAEAKVNSKSGPEGDSKMSFSKTHSTATMPPPINPILASLQHNSILTPTRVSSSATKQKVLSPPHIKADFNLADFECEEDPFDNLELKTIDEKEELRNILVGTTGPIMAQLLDNNLPRGGSGSVLQDEEVLASLERATLDFKPLHKPNGFITLPQLGNCEKMSLSSKVSLPPIPAVSNIKSLSFPKLDSDDSNQKTAKLASTFHSTSCLRNGTFQNSLKPSTQSSASELNGHHTLGLSALNLDSGTEMPALTSSQMPSLSVLSVCTEESSPPNTGPTVTPPNFSVSQVPNMPSCPQAYSELQMLSPSERQCVETVVNMGYSYECVLRAMKKKGENIEQILDYLFAHGQLCEKGFDPLLVEEALEMHQCSEEKMMEFLQLMSKFKEMGFELKDIKEVLLLHNNDQDNALEDLMARAGAS | binds |
| HIP1 (protein, UniProt O00291 1-1037) MDRMASSMKQVPNPLPKVLSRRGVGAGLEAAERESFERTQTVSINKAINTQEVAVKEKHARTCILGTHHEKGAQTFWSVVNRLPLSSNAVLCWKFCHVFHKLLRDGHPNVLKDSLRYRNELSDMSRMWGHLSEGYGQLCSIYLKLLRTKMEYHTKNPRFPGNLQMSDRQLDEAGESDVNNFFQLTVEMFDYLECELNLFQTVFNSLDMSRSVSVTAAGQCRLAPLIQVILDCSHLYDYTVKLLFKLHSCLPADTLQGHRDRFMEQFTKLKDLFYRSSNLQYFKRLIQIPQLPENPPNFLRASALSEHISPVVVIPAEASSPDSEPVLEKDDLMDMDASQQNLFDNKFDDIFGSSFSSDPFNFNSQNGVNKDEKDHLIERLYREISGLKAQLENMKTESQRVVLQLKGHVSELEADLAEQQHLRQQAADDCEFLRAELDELRRQREDTEKAQRSLSEIERKAQANEQRYSKLKEKYSELVQNHADLLRKNAEVTKQVSMARQAQVDLEREKKELEDSLERISDQGQRKTQEQLEVLESLKQELATSQRELQVLQGSLETSAQSEANWAAEFAELEKERDSLVSGAAHREEELSALRKELQDTQLKLASTEESMCQLAKDQRKMLLVGSRKAAEQVIQDALNQLEEPPLISCAGSADHLLSTVTSISSCIEQLEKSWSQYLACPEDISGLLHSITLLAHLTSDAIAHGATTCLRAPPEPADSLTEACKQYGRETLAYLASLEEEGSLENADSTAMRNCLSKIKAIGEELLPRGLDIKQEELGDLVDKEMAATSAAIETATARIEEMLSKSRAGDTGVKLEVNERILGCCTSLMQAIQVLIVASKDLQREIVESGRGTASPKEFYAKNSRWTEGLISASKAVGWGATVMVDAADLVVQGRGKFEELMVCSHEIAASTAQLVAASKVKADKDSPNLAQLQQASRGVNQATAGVVASTISGKSQIEETDNMDFSSMTLTQIKRQEMDSQVRVLELENELQKERQKLGELRKKHYELAGVAEGWEEGTEASPPTLQEVVTEKE | binds |
| SH3BP1 (protein, UniProt Q9Y3L3 1-701) MMKRQLHRMRQLAQTGSLGRTPETAEFLGEDLLQVEQRLEPAKRAAHNIHKRLQACLQGQSGADMDKRVKKLPLMALSTTMAESFKELDPDSSMGKALEMSCAIQNQLARILAEFEMTLERDVLQPLSRLSEEELPAILKHKKSLQKLVSDWNTLKSRLSQATKNSGSSQGLGGSPGSHSHTTMANKVETLKEEEEELKRKVEQCRDEYLADLYHFVTKEDSYANYFIRLLEIQADYHRRSLSSLDTALAELRENHGQADHSPSMTATHFPRVYGVSLATHLQELGREIALPIEACVMMLLSEGMKEEGLFRLAAGASVLKRLKQTMASDPHSLEEFCSDPHAVAGALKSYLRELPEPLMTFDLYDDWMRAASLKEPGARLQALQEVCSRLPPENLSNLRYLMKFLARLAEEQEVNKMTPSNIAIVLGPNLLWPPEKEGDQAQLDAASVSSIQVVGVVEALIQSADTLFPGDINFNVSGLFSAVTLQDTVSDRLASEELPSTAVPTPATTPAPAPAPAPAPAPALASAATKERTESEVPPRPASPKVTRSPPETAAPVEDMARRTKRPAPARPTMPPPQVSGSRSSPPAPPLPPGSGSPGTPQALPRRLVGSSLRAPTVPPPLPPTPPQPARRQSRRSPASPSPASPGPASPSPVSLSNPAQVDLGAATAEGGAPEAISGVPTPPAIPPQPRPRSLASETN | binds |

No constants are given. Whether binding was seen depends on the method and setting. In cells and extracts the contact can be indirect. Here binding means that the protein was enriched with, or labelled near, the bait; the list need not be complete.
